From paper doi:10.1101/2023.12.13.571563
These are yes or no findings as the source states them, for the method shown. Binding seen in cells or lysates may run through a third protein. Some binding calls cover weakened binding; strength is not graded here.

The chains behind the UniProt entries cited, without tags or fusion partners.
UniProt Q39026: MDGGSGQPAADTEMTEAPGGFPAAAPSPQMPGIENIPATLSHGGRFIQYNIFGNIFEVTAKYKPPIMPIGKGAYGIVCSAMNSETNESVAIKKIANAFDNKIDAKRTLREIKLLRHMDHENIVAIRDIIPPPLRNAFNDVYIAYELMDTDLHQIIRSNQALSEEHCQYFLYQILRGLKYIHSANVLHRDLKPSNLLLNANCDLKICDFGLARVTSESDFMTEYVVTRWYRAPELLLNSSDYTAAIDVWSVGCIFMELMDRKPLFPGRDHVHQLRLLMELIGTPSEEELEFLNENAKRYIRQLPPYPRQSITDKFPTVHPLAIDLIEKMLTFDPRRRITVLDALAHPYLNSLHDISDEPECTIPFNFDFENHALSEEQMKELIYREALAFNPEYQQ

Molecular target: T1, WLIM2A (At2g39900) (Arabidopsis) (UniProt O04193)
T1 sequence: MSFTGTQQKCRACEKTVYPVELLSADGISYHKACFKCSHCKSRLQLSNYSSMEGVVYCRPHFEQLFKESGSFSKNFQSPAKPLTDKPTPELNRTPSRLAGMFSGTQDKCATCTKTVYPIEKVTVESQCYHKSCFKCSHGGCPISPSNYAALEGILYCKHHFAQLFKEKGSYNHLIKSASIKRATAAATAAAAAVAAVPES
Assay: split reporter

For “MPK6 (from UniProt Q39026 1-395) (enzyme)”, the binding was “binds”.

B1: MPK3 (enzyme, UniProt Q39023 1-370)
chain: MNTGGGQYTDFPAVETHGGQFISYDIFGSLFEITSKYRPPIIPIGRGAYGIVCSVLDTETNELVAMKKIANAFDNHMDAKRTLREIKLLRHLDHENIIAIRDVVPPPLRRQFSDVYISTELMDTDLHQIIRSNQSLSEEHCQYFLYQLLRGLKYIHSANIIHRDLKPSNLLLNANCDLKICDFGLARPTSENDFMTEYVVTRWYRAPELLLNSSDYTAAIDVWSVGCIFMELMNRKPLFPGKDHVHQMRLLTELLGTPTESDLGFTHNEDAKRYIRQLPNFPRQPLAKLFSHVNPMAIDLVDRMLTFDPNRRITVEQALNHQYLAKLHDPNDEPICQKPFSFEFEQQPLDEEQIKEMIYQEAIALNPTYG
With B1 the binding was “binds”.
